Structures can show the parent of a compound that is named as a salt. Some of the results follow. Hit calls seldom repeat between salt and free forms of one compound.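 In K562 cells expressing nanoluciferase-fused kinases, luminescence was recorded at 4 h intervals between 2 and 18 h, normalized as percent of control with DMSO at 100% and a positive control at 0%. A significant (2 sigma) signal drop marks a time point as decreased. The authors' rule for a hit is not shown and takes in more than the number of time points.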
Experiments:
Test in all cases: kinase-Nluc reporter destabilization hit call (1 = scored as downregulated) (binary); higher = compound decreases kinase abundance
Conditions in all cases: K562; 2-18 h
RET = RET (UniProt P07949)
[1] = target: RET_M918T (clone: RET_mut) (UniProt P07949)
RIOK1 = RIOK1 (UniProt Q9BRS2)
RIPK1 = RIPK1 (UniProt Q13546)
RIPK2 = RIPK2 (UniProt O43353)
ROR2 = ROR2 (UniProt Q01974)
RPS6KA1 = RPS6KA1 (UniProt Q15418)
SPHK1 = SPHK1 (UniProt Q9NYA1)
SRC = SRC (UniProt P12931)
STK24 = STK24 (UniProt Q9Y6E0)

Sequences of proteins named here, by UniProt entry; tags and fusion partners are left off. A change or cut given only in a name is not applied to a line headed by its entry.
UniProt P07949, whole entry, looked up: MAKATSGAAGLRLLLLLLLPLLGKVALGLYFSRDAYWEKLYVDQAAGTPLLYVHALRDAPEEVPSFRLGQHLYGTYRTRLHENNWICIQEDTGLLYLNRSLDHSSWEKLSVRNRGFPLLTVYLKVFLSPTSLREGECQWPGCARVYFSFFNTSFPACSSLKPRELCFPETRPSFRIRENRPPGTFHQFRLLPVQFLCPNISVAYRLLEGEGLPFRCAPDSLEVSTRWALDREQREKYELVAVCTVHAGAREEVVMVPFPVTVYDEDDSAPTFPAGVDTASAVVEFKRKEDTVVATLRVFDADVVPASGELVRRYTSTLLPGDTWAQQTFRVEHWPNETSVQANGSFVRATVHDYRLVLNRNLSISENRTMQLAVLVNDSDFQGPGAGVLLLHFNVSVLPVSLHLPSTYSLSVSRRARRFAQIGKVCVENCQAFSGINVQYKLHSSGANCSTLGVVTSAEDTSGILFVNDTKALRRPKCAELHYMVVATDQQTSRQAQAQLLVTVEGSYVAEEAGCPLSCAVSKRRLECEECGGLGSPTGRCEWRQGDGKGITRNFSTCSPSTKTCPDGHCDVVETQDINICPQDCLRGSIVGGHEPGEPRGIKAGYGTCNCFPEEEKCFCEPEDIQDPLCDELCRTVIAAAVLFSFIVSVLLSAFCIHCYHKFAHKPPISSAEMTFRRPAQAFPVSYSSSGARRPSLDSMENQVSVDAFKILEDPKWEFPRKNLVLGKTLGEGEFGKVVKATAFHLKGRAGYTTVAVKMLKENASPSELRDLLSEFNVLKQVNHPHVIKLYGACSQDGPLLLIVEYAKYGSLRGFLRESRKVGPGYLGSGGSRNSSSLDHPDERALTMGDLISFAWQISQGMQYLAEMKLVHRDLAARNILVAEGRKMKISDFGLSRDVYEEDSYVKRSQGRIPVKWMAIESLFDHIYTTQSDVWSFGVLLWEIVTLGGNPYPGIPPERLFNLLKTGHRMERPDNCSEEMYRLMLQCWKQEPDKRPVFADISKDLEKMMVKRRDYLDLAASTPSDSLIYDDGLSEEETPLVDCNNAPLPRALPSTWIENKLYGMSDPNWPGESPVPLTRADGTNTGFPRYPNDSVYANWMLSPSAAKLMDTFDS
UniProt P07949, whole entry M918T, looked up: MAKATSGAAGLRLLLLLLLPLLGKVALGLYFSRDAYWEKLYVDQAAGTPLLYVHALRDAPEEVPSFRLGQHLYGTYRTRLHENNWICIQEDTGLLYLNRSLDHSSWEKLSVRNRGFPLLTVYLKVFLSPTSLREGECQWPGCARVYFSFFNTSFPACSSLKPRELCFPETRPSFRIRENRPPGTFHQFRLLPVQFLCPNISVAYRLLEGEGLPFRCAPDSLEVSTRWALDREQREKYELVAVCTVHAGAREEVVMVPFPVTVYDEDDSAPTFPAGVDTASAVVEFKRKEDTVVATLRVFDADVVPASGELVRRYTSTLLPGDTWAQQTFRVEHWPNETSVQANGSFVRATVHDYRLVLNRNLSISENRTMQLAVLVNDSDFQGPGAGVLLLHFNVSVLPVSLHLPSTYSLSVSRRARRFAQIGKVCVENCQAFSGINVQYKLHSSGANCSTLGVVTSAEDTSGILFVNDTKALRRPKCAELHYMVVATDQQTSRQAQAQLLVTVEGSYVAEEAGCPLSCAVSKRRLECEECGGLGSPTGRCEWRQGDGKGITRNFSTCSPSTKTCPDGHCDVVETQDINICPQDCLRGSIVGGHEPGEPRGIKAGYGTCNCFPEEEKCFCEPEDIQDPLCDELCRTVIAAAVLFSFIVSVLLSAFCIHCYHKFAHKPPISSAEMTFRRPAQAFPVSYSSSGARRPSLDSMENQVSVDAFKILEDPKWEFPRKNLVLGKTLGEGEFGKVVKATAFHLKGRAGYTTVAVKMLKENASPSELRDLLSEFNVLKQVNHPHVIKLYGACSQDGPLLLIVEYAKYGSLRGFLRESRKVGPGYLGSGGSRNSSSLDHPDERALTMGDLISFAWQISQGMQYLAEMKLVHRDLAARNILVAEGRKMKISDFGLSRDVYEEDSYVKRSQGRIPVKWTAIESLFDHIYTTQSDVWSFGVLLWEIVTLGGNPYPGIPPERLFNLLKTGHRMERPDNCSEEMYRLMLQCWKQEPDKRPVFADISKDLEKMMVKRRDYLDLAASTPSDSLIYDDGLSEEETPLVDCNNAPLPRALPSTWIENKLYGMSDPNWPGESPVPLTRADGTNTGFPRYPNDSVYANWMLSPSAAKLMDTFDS
UniProt Q9BRS2: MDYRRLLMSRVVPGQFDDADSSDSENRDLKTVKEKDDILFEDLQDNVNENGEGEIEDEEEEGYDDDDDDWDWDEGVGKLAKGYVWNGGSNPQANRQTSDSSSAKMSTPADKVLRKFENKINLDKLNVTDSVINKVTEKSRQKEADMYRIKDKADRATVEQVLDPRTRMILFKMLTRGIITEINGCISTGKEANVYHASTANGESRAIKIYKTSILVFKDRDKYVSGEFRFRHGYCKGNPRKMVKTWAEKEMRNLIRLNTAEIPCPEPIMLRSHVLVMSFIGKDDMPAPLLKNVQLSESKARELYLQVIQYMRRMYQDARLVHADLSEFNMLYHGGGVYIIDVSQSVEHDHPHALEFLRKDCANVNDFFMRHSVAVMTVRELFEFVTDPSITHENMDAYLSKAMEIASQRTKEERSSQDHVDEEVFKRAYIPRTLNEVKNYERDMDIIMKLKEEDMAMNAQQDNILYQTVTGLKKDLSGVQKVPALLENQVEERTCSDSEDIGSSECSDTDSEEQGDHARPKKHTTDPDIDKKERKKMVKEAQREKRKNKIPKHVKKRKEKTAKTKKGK
UniProt Q13546: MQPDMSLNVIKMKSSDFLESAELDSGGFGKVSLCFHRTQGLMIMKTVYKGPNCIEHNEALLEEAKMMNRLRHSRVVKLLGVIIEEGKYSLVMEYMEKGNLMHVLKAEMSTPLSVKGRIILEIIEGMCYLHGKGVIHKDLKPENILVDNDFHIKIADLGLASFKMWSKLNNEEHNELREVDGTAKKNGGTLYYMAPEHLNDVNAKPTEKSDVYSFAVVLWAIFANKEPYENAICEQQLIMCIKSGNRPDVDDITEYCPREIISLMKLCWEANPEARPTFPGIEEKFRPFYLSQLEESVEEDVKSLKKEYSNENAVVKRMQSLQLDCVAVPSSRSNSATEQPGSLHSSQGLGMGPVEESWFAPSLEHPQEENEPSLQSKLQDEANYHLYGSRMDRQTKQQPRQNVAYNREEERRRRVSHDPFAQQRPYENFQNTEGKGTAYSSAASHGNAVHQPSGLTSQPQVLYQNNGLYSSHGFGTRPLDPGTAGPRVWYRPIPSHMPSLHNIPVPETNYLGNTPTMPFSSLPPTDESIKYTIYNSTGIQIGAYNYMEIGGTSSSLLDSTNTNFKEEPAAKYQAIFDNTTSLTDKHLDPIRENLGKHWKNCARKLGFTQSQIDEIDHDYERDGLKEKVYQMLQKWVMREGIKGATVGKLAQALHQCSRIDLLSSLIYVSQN
UniProt Q01974, whole entry: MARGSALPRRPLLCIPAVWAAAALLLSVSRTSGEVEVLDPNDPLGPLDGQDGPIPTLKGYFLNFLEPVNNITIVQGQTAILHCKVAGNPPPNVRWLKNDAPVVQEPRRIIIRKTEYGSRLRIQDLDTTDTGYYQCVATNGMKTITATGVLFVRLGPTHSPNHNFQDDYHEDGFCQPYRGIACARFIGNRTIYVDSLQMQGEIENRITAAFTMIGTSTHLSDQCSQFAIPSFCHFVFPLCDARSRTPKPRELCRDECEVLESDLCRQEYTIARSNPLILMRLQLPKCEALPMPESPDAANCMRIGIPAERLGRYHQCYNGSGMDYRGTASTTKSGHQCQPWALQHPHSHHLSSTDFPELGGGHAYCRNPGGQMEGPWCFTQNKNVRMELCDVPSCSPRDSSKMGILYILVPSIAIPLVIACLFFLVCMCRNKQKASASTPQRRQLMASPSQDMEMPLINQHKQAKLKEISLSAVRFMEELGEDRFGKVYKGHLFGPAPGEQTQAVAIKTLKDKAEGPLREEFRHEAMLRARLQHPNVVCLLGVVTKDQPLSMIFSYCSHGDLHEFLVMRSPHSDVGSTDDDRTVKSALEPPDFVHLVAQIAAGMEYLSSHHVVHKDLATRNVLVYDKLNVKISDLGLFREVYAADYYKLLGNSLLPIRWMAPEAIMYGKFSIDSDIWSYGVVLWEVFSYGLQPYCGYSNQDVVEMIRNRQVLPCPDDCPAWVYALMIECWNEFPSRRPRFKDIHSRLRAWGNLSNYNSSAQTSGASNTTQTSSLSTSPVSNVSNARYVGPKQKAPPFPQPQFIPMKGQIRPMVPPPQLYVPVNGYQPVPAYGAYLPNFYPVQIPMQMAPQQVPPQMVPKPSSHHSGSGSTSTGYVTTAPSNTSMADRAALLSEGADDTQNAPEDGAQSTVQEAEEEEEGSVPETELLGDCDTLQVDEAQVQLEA
UniProt Q15418, whole entry: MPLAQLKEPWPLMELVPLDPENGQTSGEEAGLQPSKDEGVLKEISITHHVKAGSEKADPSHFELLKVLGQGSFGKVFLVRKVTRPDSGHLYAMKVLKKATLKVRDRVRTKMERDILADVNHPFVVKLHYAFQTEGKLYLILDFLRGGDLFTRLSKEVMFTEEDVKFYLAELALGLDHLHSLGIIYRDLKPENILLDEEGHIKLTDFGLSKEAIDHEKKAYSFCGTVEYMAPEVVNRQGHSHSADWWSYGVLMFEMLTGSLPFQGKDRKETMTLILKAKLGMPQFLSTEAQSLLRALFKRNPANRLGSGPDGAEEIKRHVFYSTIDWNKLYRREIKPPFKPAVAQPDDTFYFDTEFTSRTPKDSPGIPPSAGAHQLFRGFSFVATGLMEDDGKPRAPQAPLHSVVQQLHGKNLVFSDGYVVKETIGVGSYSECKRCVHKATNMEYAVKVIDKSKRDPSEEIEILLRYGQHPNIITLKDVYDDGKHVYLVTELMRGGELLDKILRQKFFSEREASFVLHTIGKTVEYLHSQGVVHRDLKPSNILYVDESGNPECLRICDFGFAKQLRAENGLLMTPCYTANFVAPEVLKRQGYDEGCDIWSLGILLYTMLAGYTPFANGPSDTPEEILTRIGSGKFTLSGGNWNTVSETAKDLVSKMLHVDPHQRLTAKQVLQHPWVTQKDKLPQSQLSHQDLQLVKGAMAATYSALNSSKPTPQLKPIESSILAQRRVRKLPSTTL
UniProt Q9NYA1, whole entry: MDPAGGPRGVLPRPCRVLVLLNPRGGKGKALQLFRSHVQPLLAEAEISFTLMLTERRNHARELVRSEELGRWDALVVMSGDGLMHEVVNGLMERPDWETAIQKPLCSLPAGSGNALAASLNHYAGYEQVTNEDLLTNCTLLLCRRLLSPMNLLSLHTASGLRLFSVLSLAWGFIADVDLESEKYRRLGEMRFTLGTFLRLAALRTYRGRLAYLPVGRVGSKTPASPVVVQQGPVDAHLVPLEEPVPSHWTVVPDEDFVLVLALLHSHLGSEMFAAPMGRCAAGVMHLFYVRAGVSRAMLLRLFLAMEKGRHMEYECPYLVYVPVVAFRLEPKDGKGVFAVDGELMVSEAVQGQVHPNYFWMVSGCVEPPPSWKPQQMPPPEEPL
UniProt Q9Y6E0: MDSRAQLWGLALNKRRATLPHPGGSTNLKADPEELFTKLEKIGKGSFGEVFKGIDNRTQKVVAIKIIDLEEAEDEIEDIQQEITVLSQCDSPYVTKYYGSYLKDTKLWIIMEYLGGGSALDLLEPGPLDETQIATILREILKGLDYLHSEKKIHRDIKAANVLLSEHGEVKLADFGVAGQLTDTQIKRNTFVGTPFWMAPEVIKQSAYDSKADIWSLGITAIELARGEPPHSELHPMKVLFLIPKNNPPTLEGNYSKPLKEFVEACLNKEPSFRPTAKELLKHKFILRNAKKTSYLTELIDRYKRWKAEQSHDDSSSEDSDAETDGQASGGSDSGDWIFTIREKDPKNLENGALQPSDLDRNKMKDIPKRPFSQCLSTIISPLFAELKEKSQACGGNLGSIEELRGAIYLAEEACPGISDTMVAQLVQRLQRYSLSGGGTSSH

Measured: kinase-Nluc reporter destabilization hit call

CN(C)CCOc1cc(-c2cn[nH]c2)ccc1NC(=O)C1COc2ccccc2O1 (stereo not given) (10 µM)
inactive: RET 0 | [1] 0 | RIOK1 = 0 | RIPK1 = 0 | RIPK2 = 0 | ROR2 = 0 | RPS6KA1 = 0 | SPHK1 = 0 | SRC 0 | STK24 = 0

Cc1ccc2c(NS(=O)(=O)c3ccccc3Cl)cccc2c1Oc1ncccc1-c1ccnc(N[C@H]2CCCNC2)n1 (2.5 µM)
inactive: RET 0 | [1] 0 | RIOK1 = 0 | RIPK1 = 0 | RIPK2 = 0 | ROR2 = 0 | RPS6KA1 = 0 | SPHK1 = 0 | SRC 0 | STK24 = 0

CC(C)=CCC[C@](C)(O[C@@H]1O[C@H](CO[C@@H]2O[C@H](CO)[C@@H](O)[C@H](O)[C@H]2O)[C@@H](O)[C@H](O)[C@H]1O)[C@H]1CC[C@]2(C)[C@@H]1[C@H](O)C[C@@H]1[C@@]3(C)CC[C@H](O[C@@H]4O[C@H](CO)[C@@H](O)[C@H](O)[C@H]4O[C@@H]4O[C@H](CO)[C@@H](O)[C@H](O)[C@H]4O)C(C)(C)[C@@H]3CC[C@]12C [Ginsenoside Rb1] (10 µM)
inactive: RET 0 | [1] 0 | RIOK1 = 0 | RIPK1 = 0 | RIPK2 = 0 | ROR2 = 0 | RPS6KA1 = 0 | SPHK1 = 0 | SRC 0 | STK24 = 0

CO[C@@H]1[C@H](N(C)C(=O)c2ccccc2)C[C@H]2O[C@]1(C)n1c3ccccc3c3c4c(c5c6ccccc6n2c5c31)C(=O)NC4 [Midostaurin] (2.5 µM)
inactive: RET 0 | [1] 0 | RIOK1 = 0 | RIPK1 = 0 | RIPK2 = 0 | ROR2 = 0 | RPS6KA1 = 0 | SPHK1 = 0 | SRC 0 | STK24 = 0

O=C(NCc1ccn[nH]1)c1cc([C@@H]2CCNC[C@H]2COc2ccc3c(c2)OCO3)ccc1F [GRK2-IN-1 (hydrochloride)] (10 µM)
inactive: RET 0 | [1] 0 | RIOK1 = 0 | RIPK1 = 0 | RIPK2 = 0 | ROR2 = 0 | RPS6KA1 = 0 | SPHK1 = 0 | SRC 0 | STK24 = 0

Cc1ccc(Nc2cc(N[C@@H]3CCCC[C@@H]3N)nnc2C(N)=O)nc1C (2 µM)
inactive: RET 0 | [1] 0 | RIOK1 = 0 | RIPK1 = 0 | RIPK2 = 0 | ROR2 = 0 | RPS6KA1 = 0 | SPHK1 = 0 | SRC 0 | STK24 = 0

CN(C)c1ccc(/C=C2\C(=O)Nc3ccccc32)c2ccccc12 (10 µM)
inactive: RET 0 | [1] 0 | RIOK1 = 0 | RIPK1 = 0 | RIPK2 = 0 | ROR2 = 0 | RPS6KA1 = 0 | SPHK1 = 0 | SRC 0 | STK24 = 0

O=C(Nc1ccnc(NC(=O)C2CC2)c1)c1c(Cl)cccc1Cl (10 µM)
inactive: RET 0 | [1] 0 | RIOK1 = 0 | RIPK1 = 0 | RIPK2 = 0 | ROR2 = 0 | RPS6KA1 = 0 | SPHK1 = 0 | SRC 0 | STK24 = 0

CC(C1CC1)n1cnc2c(NCc3cccc(C(F)(F)F)c3)nc(NCCN(C)C)nc21 (stereo not given) (10 µM)
inactive: RET 0 | [1] 0 | RIOK1 = 0 | RIPK1 = 0 | RIPK2 = 0 | ROR2 = 0 | RPS6KA1 = 0 | SPHK1 = 0 | SRC 0 | STK24 = 0

O=c1c(O)c(-c2ccc(O)c(O)c2)oc2cc(O)c(O)c(O)c12 [Quercetagetin] (10 µM)
inactive: RET 0 | [1] 0 | RIOK1 = 0 | RIPK1 = 0 | RIPK2 = 0 | ROR2 = 0 | RPS6KA1 = 0 | SPHK1 = 0 | SRC 0 | STK24 = 0

CC(C)n1cnc2c(Nc3cccc(Cl)c3)nc(N[C@H]3CCCC[C@@H]3N)nc21 (2.5 µM)
inactive: RET 0 | [1] 0 | RIOK1 = 0 | RIPK1 = 0 | RIPK2 = 0 | ROR2 = 0 | RPS6KA1 = 0 | SPHK1 = 0 | SRC 0 | STK24 = 0

O=C(CCl)c1c[nH]c2ccccc12 (2.5 µM)
inactive: RET 0 | [1] 0 | RIOK1 = 0 | RIPK1 = 0 | RIPK2 = 0 | ROR2 = 0 | RPS6KA1 = 0 | SPHK1 = 0 | SRC 0 | STK24 = 0

Fc1ccc(-c2nc3n(c2-c2ccncc2)CCS3)cc1 (10 µM)
inactive: RET 0 | [1] 0 | RIOK1 = 0 | RIPK1 = 0 | RIPK2 = 0 | ROR2 = 0 | RPS6KA1 = 0 | SPHK1 = 0 | SRC 0 | STK24 = 0

CC(C)n1c(CO)nc2c(F)cc(-c3nc(Nc4ccc(CN5CCNCC5)cn4)ncc3F)cc21 (10 µM)
inactive: RET 0 | [1] 0 | RIOK1 = 0 | RIPK1 = 0 | RIPK2 = 0 | ROR2 = 0 | RPS6KA1 = 0 | SPHK1 = 0 | SRC 0 | STK24 = 0

Oc1ccc(-c2cnc3ccc(NCc4ccco4)nn23)cc1 [IRAK inhibitor 2] (2.5 µM)
inactive: RET 0 | [1] 0 | RIOK1 = 0 | RIPK1 = 0 | RIPK2 = 0 | ROR2 = 0 | RPS6KA1 = 0 | SPHK1 = 0 | SRC 0 | STK24 = 0

COc1ccc2cc1Oc1ccc(cc1)C[C@H]1c3cc(c(OC)cc3CCN1C)Oc1c(O)c(OC)cc3c1[C@H](C2)N(C)CC3 [Fangchinoline] (2.5 µM)
inactive: RET 0 | [1] 0 | RIOK1 = 0 | RIPK1 = 0 | RIPK2 = 0 | ROR2 = 0 | RPS6KA1 = 0 | SPHK1 = 0 | SRC 0 | STK24 = 0

COc1c(O)cc(O)c2c(=O)cc(-c3ccccc3)oc12 [Wogonin] (10 µM)
inactive: RET 0 | [1] 0 | RIOK1 = 0 | RIPK1 = 0 | RIPK2 = 0 | ROR2 = 0 | RPS6KA1 = 0 | SPHK1 = 0 | SRC 0 | STK24 = 0

Cn1cc(C2=C(c3ccc(Cl)cc3Cl)C(=O)NC2=O)c2ccccc21 (10 µM)
inactive: RET 0 | [1] 0 | RIOK1 = 0 | RIPK1 = 0 | RIPK2 = 0 | ROR2 = 0 | RPS6KA1 = 0 | SPHK1 = 0 | SRC 0 | STK24 = 0

Nc1nccc(Oc2ccc3c(C(=O)Nc4cccc(C(F)(F)F)c4)cccc3c2)n1 (10 µM)
inactive: RET 0 | [1] 0 | RIOK1 = 0 | RIPK1 = 0 | RIPK2 = 0 | ROR2 = 0 | RPS6KA1 = 0 | SPHK1 = 0 | SRC 0 | STK24 = 0

NC(=O)c1sc2c([N+](=O)[O-])cc(C(F)(F)F)cc2[n+]1[O-] [Cyclapolin 9] (10 µM)
inactive: RET 0 | [1] 0 | RIOK1 = 0 | RIPK1 = 0 | RIPK2 = 0 | ROR2 = 0 | RPS6KA1 = 0 | SPHK1 = 0 | SRC 0 | STK24 = 0

CC(C)(CCCCCC(O)CCCCCC(C)(C)C(=O)O)C(=O)O [Bempedoic acid] (10 µM)
inactive: RET 0 | [1] 0 | RIOK1 = 0 | RIPK1 = 0 | RIPK2 = 0 | ROR2 = 0 | RPS6KA1 = 0 | SPHK1 = 0 | SRC 0 | STK24 = 0

Nc1nc(Nc2ccc3c(c2)CC[C@@H](N2CCCC2)CC3)nn1-c1cc2c(nn1)-c1ccccc1CCC2 [Bemcentinib] (2.5 µM)
inactive: RET 0 | [1] 0 | RIOK1 = 0 | RIPK1 = 0 | RIPK2 = 0 | ROR2 = 0 | RPS6KA1 = 0 | SPHK1 = 0 | SRC 0 | STK24 = 0

COCCOc1cnc2ccn([C@H](C)c3nnc4c(F)cc(-c5cnn(C)c5)cn34)c(=O)c2c1 (10 µM)
inactive: RET 0 | [1] 0 | RIOK1 = 0 | RIPK1 = 0 | RIPK2 = 0 | ROR2 = 0 | RPS6KA1 = 0 | SPHK1 = 0 | SRC 0 | STK24 = 0

S=C(NCc1ccc2c(c1)OCO2)N1CCN(c2ncnc3c2oc2ccccc23)CC1 [Amuvatinib] (2.5 µM)
inactive: RET 0 | [1] 0 | RIOK1 = 0 | RIPK1 = 0 | RIPK2 = 0 | ROR2 = 0 | RPS6KA1 = 0 | SPHK1 = 0 | SRC 0 | STK24 = 0

O=C(Nc1ccc(Cl)cc1)C1CN(C(=O)c2cccc(-c3ccco3)c2)CC(F)(F)C1 (stereo not given) (2.5 µM)
inactive: RET 0 | [1] 0 | RIOK1 = 0 | RIPK1 = 0 | RIPK2 = 0 | ROR2 = 0 | RPS6KA1 = 0 | SPHK1 = 0 | SRC 0 | STK24 = 0

Cc1ccc(C2CC(=O)NC(SCC(=O)Nc3nccs3)=C2C#N)cc1 (stereo not given) [Necrostatin-34] (10 µM)
inactive: RET 0 | [1] 0 | RIOK1 = 0 | RIPK1 = 0 | RIPK2 = 0 | ROR2 = 0 | RPS6KA1 = 0 | SPHK1 = 0 | SRC 0 | STK24 = 0

COc1ccc(-c2cc(=O)c3c(O)cc(O)cc3o2)cc1-c1c(O)cc(O)c2c(=O)cc(-c3ccc(O)cc3)oc12 [Bilobetin] (2.5 µM)
inactive: RET 0 | [1] 0 | RIOK1 = 0 | RIPK1 = 0 | RIPK2 = 0 | ROR2 = 0 | RPS6KA1 = 0 | SPHK1 = 0 | SRC 0 | STK24 = 0

Two neighbouring compounds already listed, quoted:
O=C(NCc1ccn[nH]1)c1cc([C@@H]2CCNC[C@H]2COc2ccc3c(c2)OCO3)ccc1F [GRK2-IN-1 (hydrochloride)] (10 µM)
inactive: RET 0 | [1] 0 | RIOK1 = 0 | RIPK1 = 0 | RIPK2 = 0 | ROR2 = 0 | RPS6KA1 = 0 | SPHK1 = 0 | SRC 0 | STK24 = 0

Cc1ccc(Nc2cc(N[C@@H]3CCCC[C@@H]3N)nnc2C(N)=O)nc1C (2 µM)
inactive: RET 0 | [1] 0 | RIOK1 = 0 | RIPK1 = 0 | RIPK2 = 0 | ROR2 = 0 | RPS6KA1 = 0 | SPHK1 = 0 | SRC 0 | STK24 = 0

(next part)

CCCS(=O)(=O)N[C@H]1C[C@@H](N(C)c2ncnc3[nH]ccc23)C1 [Abrocitinib] (10 µM)
inactive: RET 0 | [1] 0 | RIOK1 = 0 | RIPK1 = 0 | RIPK2 = 0 | ROR2 = 0 | RPS6KA1 = 0 | SPHK1 = 0 | SRC 0 | STK24 = 0

COc1ccc(CCNCc2ccc(OCc3ccc(Cl)nc3)c(OC)c2)cc1OC [SBE13 (Hydrochloride)] (10 µM)
inactive: RET 0 | [1] 0 | RIOK1 = 0 | RIPK1 = 0 | RIPK2 = 0 | ROR2 = 0 | RPS6KA1 = 0 | SPHK1 = 0 | SRC 0 | STK24 = 0

— the supplement of paper PMC12823440, “Inhibitors supercharge kinase turnover through native proteolytic circuits” (Nature, 2025)
